# PubChem BioAssay AID1224830 | NIAID – 2016
# Assay: 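Genes whose knock-down alters the TNF-alpha reporter response to LPS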 (primary screen)
# Cell system: human THP-1 monocytic leukaemia cells, TNF dual-luciferase reporter clone, PMA-differentiated to macrophage-like cells
# Reagents: siRNA pool against human genes, 50 nM
# Duration: LPS for 4 h, given about 3 days after siRNA transfection
# Challenge: bacterial LPS (TLR4 ligand), 10 ng/ml
# Measurement: 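TNF firefly reporter luminescence divided by renilla, normalised to the plate median, then turned into a robust z-score for each replicate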
# Scale: TNF reporter robust z-score: higher = stronger TNF reporter response to LPS
# Hit rule: 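Each well counts as active if its z-score is over 2.8 or under -1.5; controls are left without a call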
# Here is an unselected part of about 18,000 reagents tested. About 2,900 of all reagents (16%) were called active. 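Calls are made per well; low scores hint the gene aids the LPS response, high scores that it dampens it.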 Repeated entries: four replicate wells of each siRNA pool.
gene knocked down,TNF reporter robust z-score,activity call
NNAT,0.54,inactive
NNAT,0.34,inactive
NNAT,0.95,inactive
NNAT,0.96,inactive
LEO1,0.17,inactive
LEO1,-0.35,inactive
LEO1,-1.07,inactive
LEO1,0.31,inactive
CENPF,1.1,inactive
CENPF,0.65,inactive
CENPF,0.98,inactive
CENPF,0.44,inactive
PRELID3A,-0.37,inactive
PRELID3A,0.14,inactive
PRELID3A,-0.8,inactive
PRELID3A,-0.48,inactive
PPP1R1A,1.37,inactive
PPP1R1A,3.05,active
PPP1R1A,1.88,inactive
PPP1R1A,0.22,inactive
F8A3,1.61,inactive
F8A3,1.77,inactive
F8A3,-0.04,inactive
F8A3,0.65,inactive
ESD,0.1,inactive
ESD,-0.09,inactive
ESD,-0.57,inactive
ESD,0.77,inactive
SCN5A,-1.03,inactive
SCN5A,-0.65,inactive
SCN5A,-0.58,inactive
SCN5A,-0.5,inactive
FABP6,-1.16,inactive
FABP6,-0.46,inactive
FABP6,-0.34,inactive
POLD3,-1.54,active
POLD3,-0.99,inactive
POLD3,-1.32,inactive
POLD3,-0.75,inactive
PDE4D,0.8,inactive
PDE4D,-0.52,inactive
PDE4D,-0.55,inactive
PDE4D,0,inactive
MGAT5,-0.26,inactive
MGAT5,0.67,inactive
MGAT5,-0.48,inactive
MGAT5,0.65,inactive
SLC4A1AP,-0.73,inactive
SLC4A1AP,-1.21,inactive
SLC4A1AP,-1.06,inactive
SLC4A1AP,0.32,inactive
TUBB6,-0.92,inactive
TUBB6,0.3,inactive
TUBB6,-1.21,inactive
TUBB6,-0.97,inactive
ODR4,-0.22,inactive
ODR4,-0.82,inactive
ODR4,0.32,inactive
ODR4,0.11,inactive
TBC1D10C,-0.21,inactive
TBC1D10C,-0.13,inactive
TBC1D10C,0.56,inactive
TBC1D10C,0.04,inactive
ZNF454,0.87,inactive
ZNF454,1.86,inactive
ZNF454,0.31,inactive
ZNF454,0.42,inactive
ZSCAN16,-0.55,inactive
ZSCAN16,-0.24,inactive
ZSCAN16,-0.35,inactive
ZSCAN16,0.75,inactive
GRID1,-0.46,inactive
GRID1,-0.56,inactive
GRID1,0.02,inactive
GRID1,0.55,inactive
TUBB,0.02,inactive
TUBB,0.39,inactive
TUBB,0.37,inactive
TUBB,0.25,inactive
CDKN3,-0.88,inactive
CDKN3,0.38,inactive
CDKN3,0.24,inactive
CDKN3,-0.76,inactive
CFAP298,0.77,inactive
CFAP298,-0.27,inactive
CFAP298,-0.38,inactive
CFAP298,0.03,inactive
ATOSA,-1.23,inactive
ATOSA,0.21,inactive
ATOSA,-0.74,inactive
ATOSA,0.1,inactive
NUTM2G,1.45,inactive
NUTM2G,1,inactive
NUTM2G,-0.25,inactive
NUTM2G,0.12,inactive
SFT2D3,0.54,inactive
SFT2D3,0.79,inactive
SFT2D3,-0.06,inactive
SFT2D3,0.38,inactive
SPRTN,-0.84,inactive
SPRTN,-0.59,inactive
SPRTN,-0.19,inactive
SPRTN,-0.3,inactive
MARCHF11,-1.96,active
MARCHF11,0.42,inactive
MARCHF11,2.42,inactive
MARCHF11,3.57,active
CHST5,-0.7,inactive
CHST5,-0.62,inactive
CHST5,1.16,inactive
CHST5,1.86,inactive
